For 1 substance, binding results are on record in PMC8052345.

Chains of the proteins cited; added tags and fusions are not shown.
UniProt Q07812: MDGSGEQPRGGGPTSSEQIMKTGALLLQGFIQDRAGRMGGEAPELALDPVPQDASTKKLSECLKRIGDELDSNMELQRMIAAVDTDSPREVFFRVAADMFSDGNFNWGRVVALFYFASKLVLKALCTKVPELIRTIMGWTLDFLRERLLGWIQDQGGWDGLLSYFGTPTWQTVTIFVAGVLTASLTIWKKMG

No constants are given. Whether binding was seen depends on the method and setting. Binding seen in cells or lysates may run through a third protein. Sequences can lack the tags named with a protein.

The assay concerns the target T1, Flag-tagged dual-specificity phosphatase 16 (DUSP16) (human) (UniProt Q9BY84).
T1 sequence: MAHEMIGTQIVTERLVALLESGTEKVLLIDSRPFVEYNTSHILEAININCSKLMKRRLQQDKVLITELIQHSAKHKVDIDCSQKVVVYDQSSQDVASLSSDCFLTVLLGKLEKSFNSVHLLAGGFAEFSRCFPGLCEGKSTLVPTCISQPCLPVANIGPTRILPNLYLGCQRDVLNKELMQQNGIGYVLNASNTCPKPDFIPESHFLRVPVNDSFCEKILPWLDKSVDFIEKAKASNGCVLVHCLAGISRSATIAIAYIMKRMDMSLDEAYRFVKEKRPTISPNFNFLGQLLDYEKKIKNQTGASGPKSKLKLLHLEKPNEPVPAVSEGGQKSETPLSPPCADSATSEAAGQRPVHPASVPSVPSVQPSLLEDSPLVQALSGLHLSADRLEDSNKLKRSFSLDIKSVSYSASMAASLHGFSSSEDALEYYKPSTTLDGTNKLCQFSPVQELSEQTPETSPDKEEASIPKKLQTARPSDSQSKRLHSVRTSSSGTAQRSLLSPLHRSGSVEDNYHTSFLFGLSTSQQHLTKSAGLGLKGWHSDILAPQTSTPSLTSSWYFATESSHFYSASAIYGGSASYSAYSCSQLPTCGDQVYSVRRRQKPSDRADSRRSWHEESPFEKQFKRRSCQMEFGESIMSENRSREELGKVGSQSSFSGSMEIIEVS
The experiment in a line: co-IP; Flag-tagged DUSP16 expression plasmid transfected into HEK293 T cells; DUSP16 immunoprecipitated; endogenous JNK, p38 and BAX examined in the precipitate.

“BAX, endogenous (from UniProt Q07812 1-192)”: the binding result was “no binding”.
